B1: human FGL2 C-terminal peptide (CP), with N-terminal histidin-tag (ligand)
chain: MGHHHHHHHHHHSSGHIDDDDKGDALRFNKHYNHDLKFFTTPDKDNDRYPSGNCGLYYSSGWWFDACLSANLNGKYYHQKYRGVRNGIFWGTWPGVSEAHPGGYKSSFKEAKMMIRPKHFKP
notes: Expressed in E. coli, purified by IMAC; A weaker band of about 30 kDa in SDS-PAGE indicates dimerization; also called his-tagged CP
B2: FPST, fusion protein of shrimp tropomyosin, linker (RADAAP), and CP (other)
chain: MGHHHHHHHHHHSSGHIDDDDKMDAIKKKMQAMKLEKDNAMDRADTLEQQNKEANNRAEKSEEEVFGLQKKLQQLENDLDSVQEALLKANQHLEEKDKALSNAEGEVAALNRRIQLLEEDLERSEERLNTATTKLAEASQAADESERMRKVLENRSLSDEERMDALENQLKEARFLAEEADRKYDEVARKLAMVEADLERAEERAETGESKIVELEEELRVVGNNLKSLEVSEEKANQREEAYKEQIKTLTNKLKAAEARAEFAERSVQKLQKEVDRLEDELVNEKEKYKSITDELDQTFSELSGYRADAAPGDALRFNKHYNHDLKFFTTPDKDNDRYPSGNCGLYYSSGWWFDACLSANLNGKYYHQKYRGVRNGIFWGTWPGVSEAHPGGYKSSFKEAKMMIRPKHFKP
notes: Expressed in E. coli; the number of copies is not fixed
B3: FP1, fusion protein of P1, linker, and CP (other)
chain: MGHHHHHHHHHHSSGHIDDDDKMDAIKKKMQAMKLEKDNAMDRADTLEQQNKEANNRAEKSEEEVFGLQKKLQQLENDLDSVQEALLKANQHLEEKDKALRADAAPGDALRFNKHYNHDLKFFTTPDKDNDRYPSGNCGLYYSSGWWFDACLSANLNGKYYHQKYRGVRNGIFWGTWPGVSEAHPGGYKSSFKEAKMMIRPKHFKP
notes: Expressed in E. coli; SDS-PAGE indicates a dimeric structure
B4: FP5, fusion protein of P5, linker, and CP (other)
chain: MGHHHHHHHHHHSSGHIDDDDKKTLTNKLKAAEARAEFAERSVQKLQKEVDRLEDELVNEKEKYKSITDELDQTFSELSGYRADAAPGDALRFNKHYNHDLKFFTTPDKDNDRYPSGNCGLYYSSGWWFDACLSANLNGKYYHQKYRGVRNGIFWGTWPGVSEAHPGGYKSSFKEAKMMIRPKHFKP
notes: as for B3

Tests used:
[1] = target: T1, recombinant human FcγRIIb (Sino Biological) (human, UniProt P31994 43-217, limits assumed); test: ELISA, CP immobilized, soluble recombinant human FcγRIIb 1 µg/ml added
T1 construct: Bought reagent, added in solution at 1 µg/ml; The construct is not described; also called soluble recombinant FcγRIIb; FcgammaRIIb
T1 sequence (looked up): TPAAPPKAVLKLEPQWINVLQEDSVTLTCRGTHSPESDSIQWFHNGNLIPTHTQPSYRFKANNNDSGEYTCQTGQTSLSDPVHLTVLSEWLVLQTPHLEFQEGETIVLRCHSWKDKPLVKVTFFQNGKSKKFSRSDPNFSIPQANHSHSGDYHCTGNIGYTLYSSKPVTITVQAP
Method: (§1) Proteins containing CP or a control protein, human serum albumin, were immobilized to the surface of the ELISA wells and binding of added soluble recombinant FcγRIIb was analysed.
(§2) CP, FPST, FP1, FP5 and control protein human albumin (Sigma Aldrich) were coated at 10, 5 and 2.5 µg/mL in 0.05 M carbonate-bicarbonate buffer, pH 9.6, (Sigma-Aldrich) on high binding flat bottomed, 96-well microplates (Corning Inc., Corning, USA) at 37° C. for 1 h (100 µL/well). Plates were blocked with 2.5% w/v bovine serum albumin in PBS (200 µL/well). Plates were washed and incubated with recombinant 1 µg/ml human FcγRIIb (Sino Biological) in PBS containing 0.05% Tween-20 (PBST) for 1 h at room temperature with gentle shaking. For detection of bound FcγRIIb, wells were first incubated with anti-FcγRIIb antibody (Sino Biological) and thereafter incubated with rabbit anti-mouse-HRP (Dako Cytomation). […] The reaction was stopped with 2 M H2SO4 (50 µL/well) and optical density was read at 450 nm. In between all steps, plates were washed at least three times with PBST.

[2] = target: T1, recombinant human FcγRIIb (Sino …); test: ELISA, FPST immobilized, soluble recombinant human FcγRIIb 1 µg/ml added
Method: as §1, §2

[3] = target: T1, recombinant human FcγRIIb (Sino …); test: ELISA, protein immobilized, soluble recombinant FcγRIIb added
Method: as §1, §2

Binder | binding result [3] | further results
B1 | – | binding result [1]: binds
B2 | – | binding result [2]: binds
B3 | binds | –
B4 | binds | –

Source: patent US9802999 (VETERINAERINSTITUTTET, dated 2017)
